The results in this text go back to ChEMBL document CHEMBL5674883, “The Heterochromatin Landscape in Migrating Cells and the Importance of H3K27me3 for Associated Transcriptome Alterations” (Cells, 2018).

Chains of the proteins cited; added tags and fusions are not shown.
UniProt Q61188, whole entry: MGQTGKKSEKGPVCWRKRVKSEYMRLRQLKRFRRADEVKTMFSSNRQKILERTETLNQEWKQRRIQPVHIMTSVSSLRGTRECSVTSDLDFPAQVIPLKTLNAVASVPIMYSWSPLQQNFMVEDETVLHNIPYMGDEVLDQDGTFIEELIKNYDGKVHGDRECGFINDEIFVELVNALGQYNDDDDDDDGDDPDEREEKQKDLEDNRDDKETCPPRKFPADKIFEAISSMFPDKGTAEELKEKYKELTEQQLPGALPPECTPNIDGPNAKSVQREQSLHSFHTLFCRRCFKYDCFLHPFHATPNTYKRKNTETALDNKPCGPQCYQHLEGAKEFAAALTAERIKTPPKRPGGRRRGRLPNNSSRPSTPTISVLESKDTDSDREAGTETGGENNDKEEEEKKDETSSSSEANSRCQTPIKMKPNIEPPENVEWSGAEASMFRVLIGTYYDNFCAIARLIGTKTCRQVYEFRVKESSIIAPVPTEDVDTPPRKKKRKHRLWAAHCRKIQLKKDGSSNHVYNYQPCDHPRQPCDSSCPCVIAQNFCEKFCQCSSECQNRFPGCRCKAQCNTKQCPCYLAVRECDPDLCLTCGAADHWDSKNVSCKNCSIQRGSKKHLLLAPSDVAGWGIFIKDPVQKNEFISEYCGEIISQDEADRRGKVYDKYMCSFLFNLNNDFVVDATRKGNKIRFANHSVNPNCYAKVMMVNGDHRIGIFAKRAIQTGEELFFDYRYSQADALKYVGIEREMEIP

Structures are written as SMILES. Further values from the same series stand in other lists.

What all share (type): cell-based
In assay [1] the target is T1, RNA polymerase II (Mus musculus) (UniProt P08775+Q8CFI7+P97760+A0A3Q4L2S8+Q80UW8+P61219+P62488+Q923G2+P60898+O08740+Q63871+P62876). Description: Inhibition of RNA polymerase II in mouse B16-F1 migrating cells assessed as fold change in 4930447F24Rik-RNA stability at 0.1 mM measured by ChIP-seq analysis relative to control cells.
The target in assay [2] is T1, RNA polymerase II (Mus musculus). Put plainly: Inhibition of RNA polymerase II in mouse B16-F1 migrating cells assessed as fold change in Smim19-RNA stability at 0.1 mM measured by ChIP-seq analysis relative to control cells.
For assay [3] the target is unchanged. Description: Inhibition of RNA polymerase II in mouse B16-F1 migrating cells assessed as fold change in Tmem205-RNA stability at 0.1 mM measured by ChIP-seq analysis relative to control cells.
Assay [4] has the same target. Put plainly: Inhibition of RNA polymerase II in mouse B16-F1 migrating cells assessed as fold change in Mvb12a-RNA stability at 0.1 mM measured by ChIP-seq analysis relative to control cells.
Assay [5] shares this target. Description: Inhibition of RNA polymerase II in mouse B16-F1 migrating cells assessed as fold change in Ppme1-RNA stability at 0.1 mM measured by ChIP-seq analysis relative to control cells.
For assay [6] the target is unchanged. Put plainly: Inhibition of RNA polymerase II in mouse B16-F1 migrating cells assessed as fold change in Mrpl58-RNA stability at 0.1 mM measured by ChIP-seq analysis relative to control cells.
Assay [7] has the same target. Put plainly: Inhibition of RNA polymerase II in mouse B16-F1 migrating cells assessed as fold change in Naa10-RNA stability at 0.1 mM measured by ChIP-seq analysis relative to control cells.
For assay [8] the target is unchanged. Put plainly: Inhibition of RNA polymerase II in mouse B16-F1 migrating cells assessed as fold change in Fermt2-RNA stability at 0.1 mM measured by ChIP-seq analysis relative to control cells.
The target is the same in assay [9]. Put plainly: Inhibition of RNA polymerase II in mouse B16-F1 migrating cells assessed as fold change in Uevld-RNA stability at 0.1 mM measured by ChIP-seq analysis relative to control cells.
The target is the same in assay [10]. Description: Inhibition of RNA polymerase II in mouse B16-F1 migrating cells assessed as fold change in Tom1l1-RNA stability at 0.1 mM measured by ChIP-seq analysis relative to control cells.
Assay [11] has the same target. Description: Inhibition of RNA polymerase II in mouse B16-F1 migrating cells assessed as fold change in Cntrl-RNA stability at 0.1 mM measured by ChIP-seq analysis relative to control cells.
Assay [12] has the same target. Put plainly: Inhibition of RNA polymerase II in mouse B16-F1 migrating cells assessed as fold change in Nt5dc1-RNA stability at 0.1 mM measured by ChIP-seq analysis relative to control cells.
The target is the same in assay [13]. Put plainly: Inhibition of RNA polymerase II in mouse B16-F1 migrating cells assessed as fold change in Ppp4r2-RNA stability at 0.1 mM measured by ChIP-seq analysis relative to control cells.
For assay [14] the target is unchanged. Description: Inhibition of RNA polymerase II in mouse B16-F1 migrating cells assessed as fold change in Top2b-RNA stability at 0.1 mM measured by ChIP-seq analysis relative to control cells.
For assay [15] the target is unchanged. Description: Inhibition of RNA polymerase II in mouse B16-F1 migrating cells assessed as fold change in Ckap2-RNA stability at 0.1 mM measured by ChIP-seq analysis relative to control cells.
Assay [16] shares this target. Description: Inhibition of RNA polymerase II in mouse B16-F1 migrating cells assessed as fold change in A830082K12Rik-RNA stability at 0.1 mM measured by ChIP-seq analysis relative to control cells.
The target is the same in assay [17]. Put plainly: Inhibition of RNA polymerase II in mouse B16-F1 migrating cells assessed as fold change in Cops2-RNA stability at 0.1 mM measured by ChIP-seq analysis relative to control cells.
Assay [18] shares this target. Description: Inhibition of RNA polymerase II in mouse B16-F1 migrating cells assessed as fold change in Pola1-RNA stability at 0.1 mM measured by ChIP-seq analysis relative to control cells.
Assay [19] has the same target. Put plainly: Inhibition of RNA polymerase II in mouse B16-F1 migrating cells assessed as fold change in Ppig-RNA stability at 0.1 mM measured by ChIP-seq analysis relative to control cells.
For assay [20] the target is unchanged. Put plainly: Inhibition of RNA polymerase II in mouse B16-F1 migrating cells assessed as fold change in Bclaf1-RNA stability at 0.1 mM measured by ChIP-seq analysis relative to control cells.
Assay [21] deals with Histone-lysine N-methyltransferase EZH2 (Mus musculus) (UniProt Q61188). Put plainly: Inhibition of EZH2 in mouse B16-F1 migrating cells assessed as fold change in H3K27me3-dependent regulated Zfp36-mRNA expression at 3 uM measured by ChIP-seq analysis relative to control cells.
For assay [22] the target is unchanged. Description: Inhibition of EZH2 in mouse B16-F1 migrating cells assessed as fold change in H3K27me3-dependent regulated Mbnl3-mRNA expression at 3 uM measured by ChIP-seq analysis relative to control cells.
Assay [23] has the same target. Description: Inhibition of EZH2 in mouse B16-F1 migrating cells assessed as fold change in H3K27me3-independent regulated Cebpb-mRNA expression at 3 uM measured by ChIP-seq analysis relative to control cells.
Assay [24] has the same target. Put plainly: Inhibition of EZH2 in mouse B16-F1 migrating cells assessed as fold change in H3K27me3-independent regulated Ahnak2-mRNA expression at 3 uM measured by ChIP-seq analysis relative to control cells.
Assay [25] has the same target. Description: Inhibition of EZH2 in mouse B16-F1 migrating cells assessed as fold change in H3K27me3-buffered regulated Vdr-mRNA expression at 3 uM measured by ChIP-seq analysis relative to control cells.
The target is the same in assay [26]. Description: Inhibition of EZH2 in mouse B16-F1 migrating cells assessed as fold change in H3K27me3-buffered regulated Gm10076-mRNA expression at 3 uM measured by ChIP-seq analysis relative to control cells.
The target is the same in assay [27]. Description: Inhibition of EZH2 in mouse B16-F1 migrating cells assessed as fold change in H3K27me3-buffered regulated Ppfibp2-mRNA expression at 3 uM measured by ChIP-seq analysis relative to control cells.
Assay [28] shares this target. Description: Inhibition of EZH2 in mouse B16-F1 migrating cells assessed as fold change in H3K27me3-buffered regulated Tubgcp5-mRNA expression at 3 uM measured by ChIP-seq analysis relative to control cells.
Assay [29] has the same target. Put plainly: Inhibition of EZH2 in mouse B16-F1 migrating cells assessed as fold change in H3K27me3-buffered regulated Kif11-mRNA expression at 3 uM measured by ChIP-seq analysis relative to control cells.
Assay [30] has the same target. Description: Inhibition of EZH2 in mouse B16-F1 migrating cells assessed as fold change in H3K27me3-buffered regulated Dek-mRNA expression at 3 uM measured by ChIP-seq analysis relative to control cells.

As to `OC[C@H]1O[C@@H](n2cnc3cc(Cl)c(Cl)cc32)[C@H](O)[C@@H]1O`, the log2FC came to 1.38 in [1]; 0.71 in assay [2]; 0.7 in assay [3]; 0.58 in assay [4]; 0.51 in assay [5]; 0.46 in [6]. For the same molecule, the log2FC in assay [7] was 0.44; in assay [8] it was -0.38; in assay [9], -0.4; in [10], -0.44; in assay [11] it was -0.46; in assay [12], -0.5. Also, the log2FC in assay [13] is -0.52; in [14], -0.63; in assay [15], -0.63; in assay [16], -0.64; in [17], -0.8; in assay [18], -0.81. The log2FC in assay [19] is -0.81; in [20], -0.85.

As for `CCCc1cc(C)[nH]c(=O)c1CNC(=O)c1cc(-c2ccnc(N3CCN(C)CC3)c2)cc2c1cnn2C(C)C`, the log2FC was 0.09 in assay [21]; -0.42 in assay [22]; 0.44 in assay [23]; 0.56 in assay [24]; 1.62 in [25]; 1.02 in assay [26]. In addition, the log2FC in [27] was 0.41; in [28], -0.41; in assay [29], -0.43; in assay [30] it was -0.46.
